Laboratory results: patent US20190358348A1, “CHARACTERIZATION OF BIOLOGICAL TISSUES AT A CELLULAR LEVEL USING RED AND FAR-RED FLUORESCENT DYES” (IGR-Institut Gustave Roussy, priority 2012, published 2019)

Columns and labels:
[1] = system: popliteal and/or inguinal lymph node; conditions: ex vivo CLSM and pCLE, healthy lymph nodes
[2] = system: head and neck tissue (non-tumoral mucosa and HNSCC); test: Fluorescence imaging (CLSM, pCLE) of ex vivo human head and neck surgical specimens after topical dye staining; conditions: for cellular distribution of dye fluorescence: CLSM and pCLE; for cellular distribution of dye fluorescence / time for tissue labeling: topical staining; for imaging depth below the surface limited by dye diffusion: topical delivery mode

SMILES	staining of lymphocytes [1]	cellular distribution of dye fluorescence [2]	period of decrease in fluorescence intensity / contrast imaging due to dye leakage from the tissue ([2]; ex vivo specimens imaged immediately after staining) [h]	imaging depth below the surface limited by dye diffusion [2]	time after dye loading to optimal diffusion 60 μm below the surface ([2]; TB 1% topical, focal plane of gastroflex UHD) [min]	time for tissue labeling [2]	dye leakage over the imaging procedure ([2]; 0.25 mg/ml ICG topical 10 s)
CN(C)c1ccc2nc3ccc(=[N+](C)C)cc-3sc2c1 [MB, Methylene blue]	uniformly stained	diffuse staining in the cell cytoplasm and a higher fluorescence intensity in the nuclei	2	approximately 60 μm			
Cc1cc2nc3ccc(N(C)C)cc3[s+]c2cc1N.[Cl-] [TB, Toluidine Blue]	uniformly stained	Bright fluorescence in the nuclei and diffuse staining within the cytoplasm		approximately 60 μm	15	less than one minute	
CC1(C)C(/C=C/C=C/C=C/C=C2\N(CCCCS(=O)(=O)O)c3ccc4ccccc4c3C2(C)C)=[N+](CCCCS(=O)(=O)[O-])c2ccc3ccccc3c21 [ICG, Indocyanine green]		distributed throughout the cell cytoplasm					no dye leakage was observed
CCN(CC)c1ccc(C(=C2C=CC(=[N+](CC)CC)C=C2)c2cc(O)c(S(=O)(=O)[O-])cc2S(=O)(=O)[O-])cc1.[Na+] [PB, sodium patent blue V]	uniformly stained	distribution throughout the cell cytoplasm				less than one minute	
